# Data as given in patent publication US20080262088A1, “METHODS, COMPOUNDS, AND COMPOSITIONS FOR TREATING METABOLIC DISORDERS AND DIABETES” (priority 2006, published 2008).
# Test system: Zucker Diabetic Fatty rat (ZDF)
# Test: In vivo preventive study of renal function and metabolic status in ZDF rats (serum/urine chemistry, body and organ weights)
# Conditions: either group, end of study
# From the text: The compound 1,3 Propanedisulfonic Acid Disodium Salt (PDS) was selected for a preventive study of renal function in the Zucker rat (ZDF) model as well as its effect on metabolic status and diabetes.
# A leading study model for DN is the inbred Zucker Diabetic Fatty rat (ZDF). Given a diabetogenic diet, the ZDF rat will closely mimic human adult onset diabetes (Type 2) and related complications including glomerulosclerosis and renal damage earlier than when fed a normal diet (i.e. 14-18 weeks of age). […]
# Thirty-two, 6 week-old male ZDF rats (Charles River, St. Constant, Canada) were randomized in 2 groups, Treated (PDS; in 1% sucrose drinking solution) and Control (1% sucrose drinking solution), and studied for a period of 12 weeks. […] Body weight, food and drinking solution consumption were measured on a daily basis. […] At the end of each metabolic cage session, urine output was measured, and blood and urine samples were collected in order to quantify serum and/or urine levels of PDS, creatinine, protein, uric acid, triglycerides, glucose, and electrolytes. […]
# This pre-clinical investigation evaluates the role and efficacy of compound 1,3-Propanedisulfonic Acid Disodium Salt (PDS) (Eprodisate Disodium) as a preventive treatment for DN and related pathophysiology in the ZDF rat model. The primary measured outcome is the attenuation/reversal of creatinine clearance deterioration and of proteinuria. […]
smiles,measurement,value
"O=S(=O)([O-])CCCS(=O)(=O)[O-].[Na+].[Na+] [PDS, 1,3 Propanedisulfonic Acid Disodium Salt]",amyloid deposit in the kidneys,No amyloid deposit was detected
